Our source for the cell number change and AC50 values is PubChem BioAssay AID2685 (National Center for Advancing Translational Sciences (NCATS), 2010).

The list shows a part of the results. Further columns of the screen follow, without active or inactive calls. Compounds called inactive in the main read-out are mostly missing here. Potencies come from curve fits of mixed quality, noted in brackets.

The assay can be described thus: qHTS Assay for Lipid Storage Modulators in Drosophila S3 Cells.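 As to cell number change: cells counted by Cell Tracker Red CMTPX staining in the red channel.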 As to conditions: BODIPY lipid droplet fluorescence, 18-24 h; for cell number change: measured here: cell count max response, cells fed with added oleic acid. The method in brief:
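Laser-scanning cytometry quantifies lipid droplet accumulation (500–530 nm total intensity; droplet/cell object ratio) in oleic acid-fed (400 uM added) Drosophila S3 cells treated with a concentration series. 20 uM Triacsin C defined 100% inhibition.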

The mark [1] stands for this setting: measured here: lipid fluorescence (Fed channel) AC50, cells fed with added oleic acid.
The mark [2] stands for this setting: measured here: cell number channel AC50, cells fed with added oleic acid.

As for `CC1(C)CC(c2nc(-c3ccccc3)cs2)CCS1` (stereo unspecified), the cell number change is -10.2%. Also, the AC50 under setting [1] was 32.6 µM [falling, single point]. Take `c1ccc(CSc2nc3ncncc3[nH]2)cc1`: the cell number change worked out at 23.9%. The AC50 under setting [1] was 16.4 µM [rising, partial curve]. On to `Cc1nc2c3ccccc3n(Cc3ccccc3F)c2s1`, for which the cell number change was -62.6%. For the same compound, the AC50 under setting [2] is 29.1 µM [falling, single point]. Besides, under setting [1], the half-maximal activity concentration (AC50) is 0.731 µM [rising, single point]. Take `CCOCCc1nnc(N)s1`: the cell number change was 9.62%. Besides, under setting [1], the concentration at half-maximal activity (AC50) was 29.1 µM [falling, partial curve]. With `COc1ccc2ccc(O)c(CN3CCN(S(=O)(=O)c4cc([N+](=O)[O-])ccc4C)CC3)c2c1`, the cell number change was -8.84%. Besides, the AC50 under setting [1] was 2.06 µM [rising, full curve, poor fit].

With `Cn1c(=O)c(C(=O)COC(=O)c2cc(-c3ccccc3)nc3ccccc23)c(N)n(Cc2ccccc2)c1=O`, the cell number change was -13%. For the same compound, the half-maximal activity concentration (AC50) under setting [1] was 1.3 µM [rising, partial curve]. Take `Cc1c(Cl)c([N+](=O)[O-])nn1CC(=O)N1CCCc2ccccc21`: the cell number change was 22%. Moreover, under setting [2], the AC50 is 0.00461 µM [rising, full curve, poor fit]. Further, under setting [1], the AC50 is 16.4 µM [rising, single point]. `O=C(CN(Cc1ccc(F)cc1)C(=O)CCC(=O)Nc1ccccn1)NCCc1ccccc1`: the cell number change turned out to be 19.4%. Also, the half-maximal activity concentration (AC50) under setting [2] was 0.231 µM [rising, full curve, poor fit]. The half-maximal activity concentration (AC50) under setting [1] is 0.58 µM [rising, single point]. Turning to `NS(=O)(=O)c1ccc(CNC(=O)c2ccc(S(=O)(=O)NCc3ccco3)cc2)cc1`, the cell number change stood at 5.18%. The AC50 under setting [1] was 16.4 µM [rising, partial curve]. `Cc1cc(NC(=O)C2CC(c3ccc(Cl)cc3)=NO2)no1` (stereo unspecified): the cell number change was -24.2%. Under setting [1], the AC50 was 0.116 µM [falling, full curve, poor fit]. Regarding `Cn1cc([N+](=O)[O-])c(C(=O)Nc2ccc(-c3nc4ccccc4[nH]3)cc2)n1`, the cell number change amounted to 30.1%. For the same compound, the concentration at half-maximal activity (AC50) under setting [2] is 1.64 µM [rising, partial curve]. Besides, under setting [1], the AC50 is 0.231 µM [rising, full curve, poor fit]. Turning to `CCCC1C(=O)N2C(N(C)C)=Nc3ccc(C)cc3N2C1=O` (stereo unspecified), the cell number change is 21.5%. The AC50 under setting [1] is 20.6 µM [rising, single point]. With `COC(=O)c1[nH]c2ccccc2c1CN1CCOCC1`, the cell number change was -3.65%. The AC50 under setting [1] is 4.11 µM [rising, single point]. Turning to `CC1CCOC2(O1)C(=O)N(CN1CCN(c3ccccc3F)CC1)c1ccccc12` (stereo unspecified), the cell number change turned out to be 2.87%. As for `O=C(O)CC(SCC(=O)Nc1ccc(S(=O)(=O)N2CCCC2)cc1)C(=O)O` (stereo unspecified), the cell number change was -31.4%. Besides, under setting [1], the half-maximal activity concentration (AC50) is 29.1 µM [falling, single point]. Consider `CNC(=O)CSCc1c(Cl)cccc1Cl`, for which the cell number change was -3.65%. Under setting [2], the AC50 was 6.51 µM [falling, single point]. The concentration at half-maximal activity (AC50) under setting [1] was 20.6 µM [falling, single point].

Regarding `CCOC(=O)C(C(=O)OCC)c1cc(Br)c2noc3c2c1C(=O)c1ccccc1-3`, the cell number change was -78.8%. In addition, the AC50 under setting [2] was 13 µM [falling, partial curve, poor fit]. Under setting [1], the half-maximal activity concentration (AC50) was 0.00517 µM [falling, full curve, poor fit].

On to `COc1cc(NC(=O)c2ccc(Br)cc2)c(OC)cc1NC(=O)c1ccccc1`, for which the concentration at half-maximal activity (AC50) under setting [1] is 29.1 µM [falling, single point]. Consider `O=C(CCCSc1ccccc1)Nc1nc(-c2ccccn2)cs1`, for which the AC50 by setting is: under setting [2], 0.651 µM [rising, single point]; under setting [1], 0.731 µM [rising, single point]. As to `Cc1cc(C=NCCO)c(C)n1-c1cc(Cl)ccc1Cl`, the cell number change amounted to 14%. In addition, the AC50 under setting [2] was 0.13 µM [falling, full curve, poor fit]. On to `CCOC(=O)c1cnc2c(F)ccc(F)c2c1Sc1ccccc1`, for which the cell number change was -13%. The half-maximal activity concentration (AC50) under setting [1] is 32.6 µM [falling, single point]. Regarding `CC(/C=C/c1ccccc1)=N/O`, the cell number change was 15.5%. Under setting [1], the concentration at half-maximal activity (AC50) is 18.4 µM [rising, partial curve]. Consider `O=C(Nc1cc2c(cc1Cl)OCCCO2)c1ccccc1`, for which the cell number change was determined as 43.1%. The AC50 under setting [2] was 20.6 µM [rising, partial curve, poor fit]. The AC50 under setting [1] was 2.91 µM [rising, single point]. As for `COc1ccc(/C=C2/SC(=S)N(CCCC(=O)Nc3ccc(O)cc3)C2=O)cc1`, the cell number change is -39.7%.

Turning to `Cc1ccc(SCCCCN2CCOCC2)cc1`, the cell number change came out at 8.99%.

Consider `O=C(c1ccc(Br)cc1)C1CCc2occc2C1=O` (stereo unspecified), for which the cell number change amounted to 26.1%. Under setting [1], the AC50 is 4.61 µM [falling, single point].

Take `CCn1cc(C(=O)N2CCc3ccccc32)c(=O)c2cc(S(=O)(=O)N3CC(C)CC(C)C3)ccc21` (stereo unspecified): the cell number change is 6.41%. For the same compound, the AC50 under setting [1] was 2.06 µM [rising, partial curve, poor fit]. `COc1cccc(NC(=O)CSCC(=O)O)c1`: the AC50 under setting [1] was 29.1 µM [falling, single point].

Take `Cc1ccc(C)c(OCCC(=O)Nc2cccc(S(=O)(=O)N3CCCCC3)c2)c1`: the AC50 under setting [1] is 8.2 µM [falling, partial curve].

Regarding `O=C(CCn1c(=O)[nH]c2ccccc2c1=O)N1CCN(c2cccc(C(F)(F)F)c2)CC1`, the cell number change was -26.8%. Moreover, under setting [1], the concentration at half-maximal activity (AC50) was 29.1 µM [falling, single point]. `[O-]/C(=C(\C(=S)Nc1cccc2ccccc12)[n+]1ccccc1)c1ccc(Cl)s1`: the cell number change is -18.6%. On to `COc1ccc(NC(=O)c2cccc(S(=O)(=O)N3CCCCC3)c2)c(OC)c1`, for which, under setting [1], the AC50 is 20.6 µM [rising, single point]. As to `O=C(Cc1cccc(NC(=O)C2CCCN(C(=O)C3CC3)C2)c1)Nc1cccc(C(=O)N2CCCC2)c1` (stereo unspecified), the cell number change was -27.9%. The AC50 under setting [1] was 2.31 µM [falling, partial curve, poor fit].

As for `COc1ccc(-c2csc(NC(=O)c3ccc(S(=O)(=O)N4CCc5ccccc5C4)cc3)n2)c(OC)c1`, the cell number change came to 18.9%. Moreover, the AC50 under setting [1] is 1.16 µM [rising, full curve].

Take `CCOC(=O)N/N=C/c1ccccc1OCc1ccc(Cl)cc1`: under setting [1], the AC50 is 29.1 µM [rising, single point]. Turning to `CCOC(=O)/C(=C\c1ccc(OC(F)F)cc1)C1=Nn2c(nnc2-c2ccc(Cl)cc2)SC1`, the cell number change was -10.9%. The AC50 under setting [2] was 0.461 µM [falling, partial curve, poor fit]. In addition, the half-maximal activity concentration (AC50) under setting [1] was 1.03 µM [falling, partial curve, poor fit].

With `O=c1cc(CSc2nnc(COc3ccccc3)o2)c2ccccc2[nH]1`, the cell number change is -4.36%. The AC50 under setting [1] is 5.8 µM [rising, partial curve]. As for `O=c1c(-c2ccccc2)nnc2sc(COc3ccc(Br)cc3)nn12`, under setting [2], the concentration at half-maximal activity (AC50) is 6.51 µM [rising, single point]. As for `COc1ccc(CC(=O)c2ccc(OC3OC(CO)C(O)C(O)C3O)cc2O)cc1` (stereo unspecified), the cell number change is -17%. The concentration at half-maximal activity (AC50) under setting [1] was 0.103 µM [falling, full curve, poor fit]. Turning to `COc1cc(OC)cc(C(=O)Nc2ccc(N3CCOCC3)cc2N2CCOCC2)c1`, the cell number change was found to be 4%. For the same compound, the AC50 under setting [1] is 0.00461 µM [falling, full curve]. For the compound `Fc1cccc(-c2oncc2-c2nnnn2-c2ccc(Cl)cc2)c1`, the cell number change is -1.37%. Moreover, under setting [1], the AC50 is 0.291 µM [rising, partial curve, poor fit]. As to `CC(=O)N1N=C(c2ccc(Br)cc2)OC1(C)CC(=O)Nc1ccccc1` (stereo unspecified), the cell number change is 3.35%. Besides, the AC50 under setting [1] is 0.058 µM [rising, full curve, poor fit]. For `COc1ccc(/C=C/C(=O)Oc2ccc(/C=N/NC(=O)c3ccccc3)cc2)cc1OC`, the cell number change is -20.8%. For the same compound, under setting [1], the half-maximal activity concentration (AC50) is 29.1 µM [falling, single point]. As to `COc1ccc(-c2oc(NC(=O)CSc3nncn3C)c(C#N)c2-c2ccc(OC)cc2)cc1`, the concentration at half-maximal activity (AC50) by setting is: under setting [2], 6.51 µM [rising, single point]; under setting [1], 6.51 µM [rising, single point]. Consider `COc1ccc(C(CNC(=O)CSc2ccccc2F)N2CCOCC2)cc1` (stereo unspecified), for which the cell number change was -8.97%. For the same compound, the concentration at half-maximal activity (AC50) under setting [1] is 29.1 µM [falling, single point]. Turning to `CC(=O)N1CCN(S(=O)(=O)c2cccc(C(=O)N(C)Cc3ccc(C)o3)c2)CC1`, the cell number change turned out to be 15.7%.

Turning to `COc1cc(CNc2ccc3[nH]c(=O)[nH]c3c2)ccc1OCc1ccc(C)cc1`, the cell number change worked out at 155%. Besides, the AC50 under setting [2] was 29.1 µM [rising, single point]. Also, the half-maximal activity concentration (AC50) under setting [1] is 29.1 µM [rising, partial curve]. Take `Cc1ccc(C(=O)NNC(=O)CSc2n[nH]c(-c3cccnc3)n2)cc1`: the cell number change worked out at 13.4%. Further, under setting [2], the half-maximal activity concentration (AC50) was 0.0116 µM [falling, full curve, poor fit]. `Cn1c(CN2CCOCC2)nc2cc(NC(=O)c3ccc(F)cc3)ccc21`: the cell number change came to 6.75%. For the compound `O=C(Nc1ccc(F)cc1)c1ccc2c(c1)S(=O)(=O)N=C1CCCCCN12`, the cell number change is -3.93%. Also, the AC50 under setting [1] is 6.51 µM [rising, single point].

As to `CC(C)[C@]1(c2ccc(Cl)cc2)ON(c2ccccc2C(F)(F)F)C1=O`, the cell number change was -48.5%. Under setting [2], the AC50 is 5.17 µM [falling, single point]. In addition, under setting [1], the half-maximal activity concentration (AC50) is 0.00517 µM [rising, full curve, poor fit]. Turning to `COC(=O)c1[nH]c2c(c1C)C(=O)CC(c1ccc(OC)c(OC)c1)C2` (stereo unspecified), the cell number change was -16.1%. Take `CCc1ccc(NC(=O)COc2ccc3c(c2)OCO3)cc1`: the cell number change worked out at 14.2%. As to `O=C1Nc2ccccc2/C1=C/c1ccnc2ccccc12`, the cell number change was -33.3%.

Consider `Cc1ccccc1OCC(O)Cn1c(NCc2ccccc2)nc2c1c(=O)[nH]c(=O)n2C` (stereo unspecified), for which the cell number change is -4.03%. In addition, under setting [1], the half-maximal activity concentration (AC50) was 25.9 µM [falling, single point].

Consider `O=C1OC/C(=C(/O)c2ccc(Cl)cc2)C1=O`, for which the cell number change was determined as 15.9%.

In the case of `COc1cccc(C(=O)NCC(c2ccco2)N2CCc3ccccc3C2)c1` (stereo unspecified), the cell number change amounted to 17.9%. Further, the half-maximal activity concentration (AC50) under setting [1] was 16.4 µM [rising, partial curve]. For `CCN(CC)C(=O)Cn1cc(C(=O)C(=O)N(CC)C2CCCCC2)c2ccccc21`, the cell number change was 2.6%. As for `CN(Cc1nc2ccccc2c(=O)[nH]1)C(=O)COc1ccccc1Cc1ccccc1`, the cell number change worked out at 9.21%. Further, under setting [1], the AC50 was 0.58 µM [rising, full curve, poor fit].
